Primary screen of a compound library

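Assay of Toxoplasma gondii numbers, read through their beta-galactosidase reporter with a colour substrate. Tested at 50 µM. The record gives no direction; the compounds picked for IC50 retests had high values, so higher reads as fewer parasites. Of about 18,000 compounds tested this way, about 170 (0.94%) reached 50% or more in at least one test.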

The filed quantity is “Percent Effect” (%).
The record does not define 0% and 100%; most values in the screen are far below 50% and negative numbers occur (in some assays of this library far below -100).
The compounds are a random part of those screened.

For CCN(Cc1ccc2c(c1)OCCO2)[C@H]1COC[C@@H]1O the result was -8.803%.
For COCC(N)CC1CCOCC1 (centres unmarked) the result was -0.9845%.
For CNCc1cscn1 the result was -10.27%.
For O=C1CC(c2ccc(F)cc2F)c2cn[nH]c2N1 (centres unmarked) the result was -1.568%.
For NC(CN1CCCC1=O)c1ccccc1 (centres unmarked) the result was 1.701%.
For Cc1cncc(C(=O)N2CCCS2(=O)=O)c1 the result was -11.03%.
For OCc1cnc(-c2ccco2)o1 the result was 8.123%.
For COc1ccc(NC(=O)CC2CCN(C)CC2)cc1 the result was -22.19%.
For CN(C)S(=O)(=O)N(CCCO)c1ccccc1Br the result was -12.8%.
For O=C(CCCN1CCCCC1)NCCc1cnccn1 the result was 0.9936%.
For O=S(=O)(CCc1ccccc1)N1CCC[C@H]1CO the result was -3.923%.
For N#CC1(C(=O)Nc2cc(C(N)=O)ccc2Cl)CCCC1 the result was -23.26%.
For CC(C)c1cc(C(=O)N[C@@H]2CCNC[C@H]2O)n(C)n1 the result was 6.733%.
For CCCC1NCCNC1=O (centres unmarked) the result was -6.864%.
For CC(C)C(C(=O)Nc1ccc(CCO)cc1)N(C)C (centres unmarked) the result was -0.4911%.
For CN1C(=O)C[C@@H](N)[C@@H]1c1ccnn1C the result was -25.15%.
For Cc1ccc(CN)n1C the result was -21.4%.
For Cc1nccc(C(=O)Nc2ccccn2)n1 the result was -9.711%.
For NS(=O)(=O)C1CCCOC1 (centres unmarked) the result was -1.939%.
For O=S(=O)(CCN1CCCC1)c1ccc(Cl)cc1 the result was 0.9615%.
For N#Cc1ccc(CN2CCCSCC2)o1 the result was 1.635%.
For NCc1ccc(C(=O)N2CCN(C3CC3)C(=O)C2)cc1 the result was 8.158%.
For COCc1nc(CN2C(=O)CCc3ccccc32)no1 the result was 1.299%.
For O=C(CCc1cccnc1)NCCN1CCNC1=O the result was 42.81%.
For Cc1ccc(C(=O)N2CCN(C(C)C(N)=O)CC2)s1 (centres unmarked) the result was 98.87%.
For COCC(=O)NCc1cc(F)cc(F)c1 the result was -16.9%.
For CSCC(C)CNC(=O)c1cnccn1 (centres unmarked) the result was -6.229%.
For c1csc(C2CCCN2)n1 (centres unmarked) the result was 28.64%.
For NC1CCCN(c2ccccc2F)C1=O (centres unmarked) the result was -10.26%.
For COCCC1(CO)CCCN(C(=O)c2ccncc2)C1 (centres unmarked) the result was -15.24%.
For CCC(CC)c1cc(N)on1 the result was -12.24%.
For Cc1nc(C2CC(O)C2)cc(N2CC[C@@H](O)C2)n1 (some centres unmarked) the result was 0.1542%.
For N[C@H]1CN(C(=O)c2sccc2Cl)C[C@@H]1C1CC1 the result was -5.172%.
For Cc1cc(F)ccc1NC(=O)NCC1(O)CCNC1 (centres unmarked) the result was -14.34%.
For NC(=O)COc1cccc(CNC(=O)C2CC=CC2)c1 the result was 13.93%.
For CCOCCOCCNC the result was 0.6492%.
For Cc1nonc1C(=O)Nc1cnc(N(C)C)nc1 the result was -9.592%.
For Cc1c(S(=O)(=O)N2CCC(N)CC2)cnn1C the result was -0.6017%.
For NS(=O)(=O)c1cccnc1NC1CCc2ccccc21 (centres unmarked) the result was 16.24%.
For CCCc1noc(COc2nc(C)no2)n1 the result was 3.348%.
For CCC(C)(N)c1nc(=O)cc(C)[nH]1 (centres unmarked) the result was 20.53%.
For NS(=O)(=O)c1ccc(F)c(C(=O)Nc2ccccc2)c1 the result was -9.009%.
For CN(Cc1cnn(C)c1)C(=O)C1CCNCC1 the result was 3.083%.
For CN(CCCN)c1ccccc1F the result was -0.08587%.
For COc1ccc(C2CCN(CC(=O)NC(N)=O)C2)cc1 (centres unmarked) the result was -12.56%.
For Cc1noc(C)c1S(=O)(=O)NCCc1ccccn1 the result was -1.887%.
For CC(COCC(F)(F)F)NC(=O)c1cccnc1O (centres unmarked) the result was -4.41%.
For CSc1ccc(C)c(C(=O)N2CCCC(C(N)=O)C2)c1 (centres unmarked) the result was 3.064%.
For Cc1nonc1CC(=O)N(C)CCN1CCCCC1=O the result was 6.661%.

From ChEMBL document CHEMBL3988442, “University of Dundee, Small-Polar-MMV Screening Library” (2021).